Experimental data taken from patent US20260248788A1, “NEW COMPOUNDS AND TREATMENT OF RENAL CELL CARCINOMA” (TRUSTLIFE THERAPEUTICS INC., priority 2023, published 2026).
For part of these data: At least one structure is not confirmed: it was looked up by name or label, or the drawing left a doubt. Some of these results come from one statement about several compounds together.

Legend:
Format in all cases: cell-based, human
BUB1B = assay: Western blot of BUB1B in Caki-1 cells treated with TG-101209 derivatives; details: 5 μM of target drug, 1 day (FIG. 41, 56)
Procedure: Cell culture 2: Caki-1 was purchased from CLS Cell Lines Service (Germany). The cells were maintained in McCoy's 5A (modified) medium (16600082, Thermo Fisher Scientific, USA) and supplemented with 10% fetal bovine serum (FBS, F7524, Sigma-Aldrich), 1% Penicillin/Streptomycin (P4333, Sigma-Aldrich).
The target drugs developed as alternatives to TG-101209, were dissolved in 0.1% DMSO (41639, Sigma-Aldrich). Caki-1 cells from cell culture 2 were seeded in a 6-well plate at 3×10^5 cells per well. […]
The cells were washed with PBS solution and then lysed with CelLytic M (C2978, Sigma-Aldrich) lysis buffer containing protease inhibitors (11836170001, Roche). The cell lysates were centrifuged at 12 000 rpm for 10 min and supernatants were collected. Protein Assay Dye Reagent (5000006, Bio-Rad) was used for the determination of protein concentration. The absorbance of the proteins was measured spectrophotometrically at 595 nm by a microplate reader (Hidex Sense Beta Plus). Protein electrophoresis was performed using Mini-PROTEAN® TGX™ Precast Gels (4561086, Bio-Rad) and then the separated proteins were transferred to a Trans-Blot Turbo Mini 0.2 μm PVDF Transfer Packs membrane (1704158, Bio-Rad) by using Trans-Blot® Turbo™ Transfer System (Bio-Rad). The membrane was blocked with 5% skim milk for 30 min at 4° C. with gentle rocking. After blocking, the membrane was treated with primary antibodies: Anti-BUB1B (HPA008419, Human Protein Atlas, Sweden) and Anti-Beta actin (ab8227, Abcam) as a loading control overnight at 4° C. on a rocking platform. After the treatment of primary antibodies, the membrane was washed three times with TBS-T buffer (A09-7500-100, Medicago). Then, Goat anti-Rabbit IgG-HRP (ab205718, Abcam) was treated as the secondary antibody for 30 min at 4° C. with gentle rocking.

ASF1B = assay: Western blot of ASF1B protein level in drug-treated Caki-1; details: Caki-1, panobinostat 5 nM, 24 h, vs DMSO
Caki-1 = assay: Cell Counting Kit-8 (CCK-8) cell viability assay; details: Caki-1, 24 h; TG-101209 6 nM, NVP-TAE684 3 nM, MK-0752 5 nM, withaferin-a 4 μM, panobinostat 5 nM; vs DMSO
Procedure: Cell culture 1: Human clear cell renal cell carcinoma (ccRCC) cell line Caki-1 was obtained from the Karolinska Institute of Environmental Medicine, Stockholm, Sweden, derived from a ccRCC patient. The cells were cultured in RPMI 1640 medium with 10% fetal bovine serum (FBS) and 1% penicillin/streptomycin. The cells were cultivated at 37° C. in a humidified incubator with 5% CO2. TG-101209, NVP-TAE684, MK-0752, actinomycin-d, and panobinostat were purchased from Selleckchem ([…], […], […], […], […], Selleckchem, Houston, TX, USA), and withaferin-a was purchased from Sigma (W4394, Sigma-Aldrich, Saint Louis, MO, USA). These drugs were dissolved in DMSO. The cells (from cell culture 1) were seeded in a 96-well plate at 20×10^3 cells per well. After seeding for 24 h, the cells were treated for 24 h with the target drugs: TG-101209 (6 nM), NVP-TAE684 (3 nM), MK-0752 (5 nM), withaferin-a (4 μM), actinomycin-d (0.3 nM), and panobinostat (5 nM). The cells in the negative control group were only treated by DMSO for one day. Cell proliferation was detected by Cell Counting Kit-8 (CCK-8) assay. The 10 μl of CCK-8 reagent (1:10) was added to each well of 96-well plate with siRNA transfected cells or drug-treated cells by manufacturer's instruction. The 96-well plate was incubated at 37° C. for 2 hours and then measured absorbance at 450 nm using a microplate reader (Hidex Sense Beta Plus).

Cc1cnc(Nc2ccc(C(=O)Nc3ccc(OCCCN4CCOCC4)cc3)cc2)nc1Nc1cccc(S(=O)(=O)NC(C)(C)C)c1 [Compound M101G, 4-((4-((3-(N-(tert-butyl)sulfamoyl)phenyl)amino)-5-methylpyrimidin-2-yl)amino)-N-(4-(3-morpholinopropoxy)phenyl)benzamide]
expression levels of BUB1B (Western blot) (BUB1B): ability to lower the expression levels of BUB1B

COc1cc(Nc2ncc(C)c(Nc3cccc(S(=O)(=O)N4CCOCC4)c3)n2)cc(OC)c1 [Compound M104, N2-(3,5-Dimethoxyphenyl)-5-methyl-N4-(3-(morpholinosulfonyl)phenyl)pyrimidine-2,4-diamine]
expression levels of BUB1B (Western blot) (BUB1B): ability to lower the expression levels of BUB1B

Cc1cnc(Nc2ccc(OCCCN3CCOCC3)cc2)nc1Nc1cccc(S(=O)(=O)N2CCOCC2)c1 [Compound M106, 5-methyl-N2-(4-(3-morpholinopropoxy)phenyl)-N4-(3-(morpholinosulfonyl)phenyl)pyrimidine-2,4-diamine]
expression levels of BUB1B (Western blot) (BUB1B): ability to lower the expression levels of BUB1B

Cc1cnc(Nc2ccc(C(=O)Nc3cccc(S(=O)(=O)NC(C)(C)C)c3)cc2)nc1Nc1cccc(S(=O)(=O)NC(C)(C)C)c1 [Compound M101D, N-(3-(N-(tert-butyl)sulfamoyl)phenyl)-4-((4-((3-(N-(tert-butyl)sulfamoyl)phenyl)amino)-5-methylpyrimidin-2-yl)amino)benzamide]
expression levels of BUB1B (Western blot) (BUB1B): ability to lower the expression levels of BUB1B

COc1cc(NC(=O)c2ccc(Nc3ncc(C)c(Nc4cccc(S(=O)(=O)NC(C)(C)C)c4)n3)cc2)cc(OC)c1 [Compound M101A, 4-((4-((3-(N-(tert-butyl)sulfamoyl)phenyl)amino)-5-methylpyrimidin-2-yl)amino)-N-(3,5-dimethoxyphenyl)benzamide]
expression levels of BUB1B (Western blot) (BUB1B): ability to lower the expression levels of BUB1B

Cc1ccc(Nc2ncc(C)c(Nc3cccc(S(=O)(=O)N4CCOCC4)c3)n2)cc1Nc1nc(-c2cccnc2)cs1 [Compound M105, 5-methyl-N2-(4-methyl-3-((4-(pyridin-3-yl)thiazol-2-yl)amino)phenyl)-N4-(3-(morpholinosulfonyl)phenyl)pyrimidine-2,4-diamine]
expression levels of BUB1B (Western blot) (BUB1B): ability to lower the expression levels of BUB1B

Cc1cnc(Nc2ccc(OCCCN3CCOCC3)cc2)nc1Nc1cccc(S(=O)(=O)NC(C)(C)C)c1 [Compound M103, N-(tert-butyl)-3-((5-methyl-2-((4-(3-morpholinopropoxy)phenyl)amino)pyrimidin-4-yl)amino)benzenesulfonamide]
expression levels of BUB1B (Western blot) (BUB1B): ability to lower the expression levels of BUB1B

Cc1[nH]c2ccccc2c1CCNCc1ccc(/C=C/C(=O)NO)cc1 [panobinostat]
protein level of ASF1B (Western blot) (ASF1B): significantly decreased
cell viability (CCK-8) (Caki-1): significantly reduced
